Data as given in PubChem BioAssay AID1259300 (Sanger Institute, 2017).

Aim: 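Kinase and colorectal-mutated gene knock-downs lowering HCT15 viability or boosting drug effects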 (primary screen)
Cell system: HCT15 colorectal cancer cells
Reagent: siRNA pool against human genes
Treatment: anchor drug or DMSO vehicle added 24 h after seeding: BYL719 1 µM, cetuximab 5 µg/ml, trametinib 10 nM; drug doses chosen to barely affect viability alone
Measurement: 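Cell viability after knock-down, as fraction of non-targeting pool wells averaged over replicates, plus robust z-score for knock-down alone; synergy score per drug (BYL719 1 µM, cetuximab 5 µg/ml, trametinib 10 nM)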
Scale: viability z-score, siRNA alone: higher = more viable cells after knock-down; viability vs non-targeting, siRNA alone: higher = more viable cells; synergy score with BYL719 and synergy score with cetuximab and synergy score with trametinib: higher = stronger synergy of knock-down with drug
Rule for the call: 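a knock-down without drug that drives the robust viability z-score under -3 is active, i.e. essential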
Calls: active = essential: knock-down alone lowers viability (z below -3); inactive = no strong viability loss with knock-down alone
This is one part, drawn at random, of 794 reagents. 18 of all reagents (2.3%) were called active. 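Calls rest on knock-down alone, not drug synergy; depositor treated synergy scores above 0.15 as synergistic; drug doses alone had little viability effect.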 No viability above 1 is reported: the scale is capped. Not stated in the record: the amount of reagent, the time to read-out.

| gene knocked down | PubChem SID | viability z-score, siRNA alone | viability vs non-targeting, siRNA alone | synergy score with BYL719 | synergy score with cetuximab | synergy score with trametinib | call |
| --- | --- | --- | --- | --- | --- | --- | --- |
| NTRK2 (GeneID 4915) | SID152152425 | 0.625 | 1 | 0.0869 | 0 | -0.0984 | inactive |
| SF3B1 (GeneID 23451) | SID152151347 | -8.13 | 0.363 | 0.0438 | -0.0856 | 0.0693 | active |
| TRIB3 (GeneID 57761) | SID56478723 | 0.625 | 1 | 0.218 | 0 | 0.0642 | inactive |
| SOS2 (GeneID 6655) | SID152153288 | 0.439 | 0.986 | 0.143 | 0.0472 | -0.00428 | inactive |
| APC (GeneID 324) | SID152153239 | -1.26 | 0.863 | 0.0722 | -0.091 | -0.0578 | inactive |
| DGKB (GeneID 1607) | SID56479090 | 0.224 | 0.971 | 0.0812 | 0.0418 | 0.000993 | inactive |
| NME1 (GeneID 4830) | SID56479166 | -0.656 | 0.907 | -0.0303 | -0.0932 | -0.115 | inactive |
| HIPK2 (GeneID 28996) | SID56478619 | 0.307 | 0.977 | 0.0772 | 0.0926 | -0.00279 | inactive |
| PRPS1L1 (GeneID 221823) | SID56479159 | 0.401 | 0.984 | 0.181 | 0.0122 | -0.0543 | inactive |
| GK (GeneID 2710) | SID56479100 | 0.625 | 1 | 0.212 | 0.0648 | -0.0251 | inactive |
| FN3K (GeneID 64122) | SID56479098 | 0.625 | 1 | 0.146 | 0.145 | 0.0395 | inactive |
| SRPK2 (GeneID 6733) | SID56478890 | 0.605 | 0.999 | 0.0931 | 0.0229 | 0.0869 | inactive |
| ALPK3 (GeneID 57538) | SID152152513 | 0.224 | 0.971 | 0.0674 | 0.0635 | -0.0432 | inactive |
| ERBB3 (GeneID 2065) | SID135620617 | -0.496 | 0.918 | 0.111 | -0.0583 | -0.0626 | inactive |
| EPHA6 (GeneID 285220) | SID152153448 | -0.726 | 0.902 | 0.403 | 0.254 | 0.106 | inactive |
| GUCY2F (GeneID 2986) | SID152150427 | 0.625 | 1 | 0.119 | 0.022 | -0.0984 | inactive |
| CMPK1 (GeneID 51727) | SID56478766 | 0.625 | 1 | 0.0864 | 0 | -0.00896 | inactive |
| MAP2K6 (GeneID 5608) | SID135620765 | 0.197 | 0.969 | 0.293 | 0.0497 | 0.086 | inactive |
| BMPR2 (GeneID 659) | SID135620969 | 0.17 | 0.967 | 0.178 | 0.0785 | 0.0556 | inactive |
| CLK3 (GeneID 1198) | SID56478875 | 0.625 | 1 | 0.199 | 0.0684 | -0.0984 | inactive |
| CSNK1E (GeneID 1454) | SID56478659 | 0.566 | 0.996 | 0.0995 | 0.0149 | 0.000957 | inactive |
| LMTK2 (GeneID 22853) | SID152147902 | 0.625 | 1 | 0.189 | 0.0961 | -0.073 | inactive |
| CSNK1G3 (GeneID 1456) | SID152152817 | 0.625 | 1 | 0.257 | 0.183 | 0.0574 | inactive |
| MAP3K12 (GeneID 7786) | SID56478643 | 0.343 | 0.979 | 0.228 | 0.0195 | 0.0137 | inactive |
| PKMYT1 (GeneID 9088) | SID56478956 | 0.233 | 0.972 | 0.186 | -0.0285 | -0.000157 | inactive |
| MAPK4 (GeneID 5596) | SID152148838 | 0.625 | 1 | 0.111 | 0.109 | 0.0525 | inactive |
| PRKY (GeneID 5616) | SID135620861 | 0.625 | 1 | 0.263 | 0.162 | 0.101 | inactive |
| DAPK3 (GeneID 1613) | SID56478935 | -1.75 | 0.827 | 0.123 | 0.111 | -0.0337 | inactive |
| STK16 (GeneID 8576) | SID152154415 | 0.625 | 1 | 0.0777 | 0.0421 | -0.0984 | inactive |
| UCKL1 (GeneID 54963) | SID152149527 | 0.625 | 1 | 0.102 | 0.0994 | 0.00992 | inactive |
| MAST3 (GeneID 23031) | SID152151496 | -0.446 | 0.922 | -0.07 | 0.0611 | -0.0767 | inactive |
| TTBK1 (GeneID 84630) | SID135620866 | -2.16 | 0.798 | -0.0139 | -0.0526 | -0.231 | inactive |
| PSTK (GeneID 118672) | SID134320501 | 0.0703 | 0.96 | -0.00607 | 0.00431 | -0.102 | inactive |
| IP6K2 (GeneID 51447) | SID56479106 | 0.625 | 1 | 0.149 | 0.19 | -0.0984 | inactive |
| MAP3K19 (GeneID 80122) | SID135620896 | -1.03 | 0.88 | 0.139 | -0.111 | -0.116 | inactive |
| TRIM27 (GeneID 5987) | SID152155375 | 0.625 | 1 | 0.167 | 0.0892 | 0.0322 | inactive |
| CKB (GeneID 1152) | SID56479084 | 0.18 | 0.968 | -0.0156 | -0.0201 | -0.0523 | inactive |
| CDKN2D (GeneID 1032) | SID135620643 | -0.908 | 0.889 | 0.0584 | 0.0256 | -0.00745 | inactive |
| PRKCA (GeneID 5578) | SID56478672 | 0.625 | 1 | -0.029 | 0.136 | -0.0984 | inactive |
| EFNA4 (GeneID 1945) | SID134312013 | 0.418 | 0.985 | 0.118 | 0.06 | -0.0428 | inactive |
| XYLB (GeneID 9942) | SID152153831 | -0.877 | 0.891 | 0.0303 | -0.109 | -0.105 | inactive |
| MAPK12 (GeneID 6300) | SID152156302 | 0.625 | 1 | 0.133 | 0.0424 | -0.0984 | inactive |
| CDK12 (GeneID 51755) | SID152151382 | -0.314 | 0.932 | 0.0429 | 0.0628 | -0.0178 | inactive |
| PHKA2 (GeneID 5256) | SID56479176 | -0.72 | 0.902 | 0.0162 | -0.00715 | -0.187 | inactive |
| TTK (GeneID 7272) | SID56478775 | -1.18 | 0.869 | 0.0541 | 0.117 | -0.142 | inactive |
| AK7 (GeneID 122481) | SID152153423 | -2.51 | 0.772 | 0.0624 | 0.0715 | -0.148 | inactive |
| RPS6KA3 (GeneID 6197) | SID152150758 | 0.625 | 1 | 0.233 | 0.111 | 0.0121 | inactive |
| DBF4 (GeneID 10926) | SID135620786 | 0.57 | 0.996 | 0.0715 | 0.0982 | -0.102 | inactive |
| LIMK2 (GeneID 3985) | SID152148517 | -0.45 | 0.922 | 0.0423 | -0.0492 | -0.169 | inactive |
| JAK1 (GeneID 3716) | SID152154758 | 0.625 | 1 | 0.181 | 0.0509 | -0.0984 | inactive |
| PLK4 (GeneID 10733) | SID152155543 | 0.625 | 1 | 0.216 | 0.178 | 0.0943 | inactive |
| PIK3R1 (GeneID 5295) | SID135620606 | 0.39 | 0.983 | 0.13 | 0.0139 | -0.0302 | inactive |
| MAPK1 (GeneID 5594) | SID152148532 | 0.625 | 1 | 0.169 | 0.11 | 0.0389 | inactive |
| NADK (GeneID 65220) | SID152150245 | 0.548 | 0.994 | 0.145 | 0.0706 | 0.0731 | inactive |
| ULK3 (GeneID 25989) | SID152148646 | 0.249 | 0.973 | 0.108 | 0.0109 | -0.123 | inactive |
| TNK1 (GeneID 8711) | SID152152407 | 0.625 | 1 | 0.192 | 0.0973 | -0.00412 | inactive |
| CDK4 (GeneID 1019) | SID56478598 | 0.625 | 1 | 0.087 | 0.0912 | -0.0759 | inactive |
| PCK2 (GeneID 5106) | SID56479157 | 0.0244 | 0.956 | 0.116 | -0.0106 | -0.091 | inactive |
| ALPK2 (GeneID 115701) | SID152151764 | 0.44 | 0.987 | 0.169 | 0.0255 | -0.11 | inactive |
| PCK1 (GeneID 5105) | SID135621257 | -1.17 | 0.87 | 0.136 | -0.0715 | -0.00336 | inactive |
| MAP3K3 (GeneID 4215) | SID56478641 | -0.21 | 0.939 | 0.0987 | 0.0134 | -0.0454 | inactive |
| ULK1 (GeneID 8408) | SID56478976 | -0.036 | 0.952 | 0.0635 | -0.0481 | -0.142 | inactive |
| PRKCD (GeneID 5580) | SID56478673 | 0.0362 | 0.957 | 0.154 | 0.0711 | -0.0221 | inactive |

Individual results from the list.
GK (GeneID 2710) [SID56479100], viability vs non-targeting, siRNA alone: 1
TTBK1 (GeneID 84630) [SID135620866], call → inactive
Under “viability z-score, siRNA alone”, SRPK2 (GeneID 6733) [SID56478890] reads 0.605
CDKN2D (GeneID 1032) [SID135620643], call → inactive
